# The list shows a part of the results. Shown are side measurements of this screen, not its main read-out; they come without a call. Compounds called inactive in the main read-out are mostly missing here. Words in brackets tell the shape of the fitted curve; partial curves, single points and poor fits give uncertain potencies.
# Assay: qHTS Assay to Find Inhibitors of Chronic Active B-Cell Receptor Signaling
# Conditions: ABC-DLBCL IkBa-CBG/CBR reporter, luminescence ratio (green luciferase fused to IkBa over red control in TMD8 lymphoma cells), 4 h
# Procedure, shortened: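 Cell line TMD8 (human ABC DLBCL), stably expressing tet-inducible CBG68-IkBa fusion and CBR; IMDM/0.5% FBS; cpd up to 46 uM; dox induction, 4 h, 37C/5% CO2; dual luminescence; green/red ratio; MG132 control.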
# [1] = measured here: CBR red luminescence, cell number
# [2] = measured here: IkBa-CBG green luminescence
SMILES,AC50 [1],AC50 [2]
C=CCOc1ccc(/C=C/C(=O)OCC(=O)N2CCC(c3ccccc3)=N2)cc1,"11.6 µM [rising, partial curve, poor fit]",
O=C(Nc1ccccc1)N1CCc2ccccc2C1,"1.64 µM [falling, full curve]",
c1ccc(CSc2ncnc3c2cnn3Cc2ccccc2)cc1,"18.4 µM [rising, partial curve, poor fit]",
O=C(O)c1cccc(NN=C2c3ccccc3-c3ccccc32)c1,"14.1 µM [falling, partial curve]",
CCN(CC)C(=O)c1ccc(C(=O)Nc2ccc(F)cc2)cc1,"18.4 µM [falling, single point]",
CN(C)c1ccc(/C=C/c2nc3ccccc3c(=O)[nH]2)cc1,"3.98 µM [falling, single point]",
C/C(=N/NC(=O)c1ccc(Br)o1)c1ccncc1,"29.1 µM [falling, single point]",
O=C(CNC(=O)c1ccco1)NCC(=O)OCc1cccc(Cl)c1,"11.2 µM [rising, partial curve]",
N=c1oc2ccccc2cc1C(=O)NC1CCCCCC1,"4.47 µM [falling, full curve]",
COc1ccc(/C=C2\Sc3ccc(C(=O)N4CCCC4)cc3N(C)C2=O)cc1OC,"25.1 µM [falling, single point]",
CCCCC(CC)CNC(=O)C(=O)C1C(=O)Nc2ccccc21 (centres undefined),"5.01 µM [falling, full curve, poor fit]",
Cc1cc(C(=O)N/N=C/c2ccc([N+](=O)[O-])cc2)c(C)o1,"0.562 µM [falling, full curve, poor fit]",
CSc1ncccc1C(=O)OCC(=O)N(CC(C)C)C1CCS(=O)(=O)C1 (centres undefined),"14.1 µM [falling, single point]",
O=C(Nc1cccc(NC(=O)c2ccc3c(c2)OCO3)c1)c1ccccc1,"0.0891 µM [falling, full curve, poor fit]",
Cc1cccc(OCC(=O)N2CCC(N3CCOCC3)CC2)c1,"1.46 µM [falling, full curve]",
CCc1ccc(CNC(=O)CCc2nnc(CCc3ccc(OC)cc3)o2)nc1,"5.62 µM [rising, single point]",
O=S(=O)(Nc1cc(Cl)ccc1-n1cncn1)c1ccccc1Cl,"1.46 µM [rising, partial curve]",
CC12CCC(C(=O)N3CCN(c4ccccc4)CC3)(CC1=O)C2(C)C (centres undefined),"29.1 µM [rising, single point]",
Cc1ccc2oc(-c3ccco3)nc2c1,"35.5 µM [rising, single point]",
Clc1cccc(Cn2ncc3ccccc32)c1,"7.94 µM [rising, partial curve, poor fit]",
CCc1ccc(-n2c(SC(CC)C(=O)N(CC)CC)nc3n[nH]c(C)c3c2=N)cc1 (centres undefined),"35.5 µM [falling, single point]","35.5 µM [rising, partial curve, poor fit]"

# Laid out differently: entries from further up.
SMILES	AC50 [1]	AC50 [2]
c1ccc(CSc2ncnc3c2cnn3Cc2ccccc2)cc1	18.4 µM [rising, partial curve, poor fit]	
CCN(CC)C(=O)c1ccc(C(=O)Nc2ccc(F)cc2)cc1	18.4 µM [falling, single point]	
CN(C)c1ccc(/C=C/c2nc3ccccc3c(=O)[nH]2)cc1	3.98 µM [falling, single point]	
C/C(=N/NC(=O)c1ccc(Br)o1)c1ccncc1	29.1 µM [falling, single point]	
COc1ccc(/C=C2\Sc3ccc(C(=O)N4CCCC4)cc3N(C)C2=O)cc1OC	25.1 µM [falling, single point]	
CCCCC(CC)CNC(=O)C(=O)C1C(=O)Nc2ccccc21 (centres undefined)	5.01 µM [falling, full curve, poor fit]	
Cc1cc(C(=O)N/N=C/c2ccc([N+](=O)[O-])cc2)c(C)o1	0.562 µM [falling, full curve, poor fit]	
CSc1ncccc1C(=O)OCC(=O)N(CC(C)C)C1CCS(=O)(=O)C1 (centres undefined)	14.1 µM [falling, single point]	
CCc1ccc(CNC(=O)CCc2nnc(CCc3ccc(OC)cc3)o2)nc1	5.62 µM [rising, single point]	

# (further entries)

SMILES,AC50 [1],AC50 [2]
Cc1ccccc1NS(=O)(=O)c1ccc(C(=O)NCC(c2ccco2)N2CCCCC2)cc1 (centres undefined),"13 µM [falling, partial curve, poor fit]",
C/C(=N\NC(=O)C(N)=O)c1ccc(NC(=O)c2cccs2)cc1,"8.91 µM [falling, partial curve]",
O=C(Nc1ccc2c(c1)CCC2)c1ncoc1-c1ccccc1F,"0.447 µM [rising, partial curve, poor fit]",
COc1ccc(NC(=O)CSc2nnc(-c3ccc(F)cc3)o2)cn1,"16.4 µM [falling, single point]",
CCN(CC1COc2ccccc2O1)C(=S)Nc1ccc(F)cc1 (centres undefined),"6.51 µM [rising, single point]",
COc1ccccc1NC(=O)c1oc2ccc(C)cc2c1C,"17.8 µM [rising, partial curve, poor fit]",
CC1=CSC2=NC(=O)/C(=C\c3cccn3-c3ccccc3)C(=N)N12,"0.731 µM [falling, partial curve, poor fit]","0.731 µM [rising, full curve, poor fit]"
CC(=C\C(=O)O)/C(=C\c1cccc2ccccc12)C(=O)O,"2.82 µM [falling, partial curve, poor fit]",
CC1CCN(S(=O)(=O)c2ccc3c(c2)c(=O)c(C(=O)NCc2ccccc2Cl)cn3C)CC1,"2.91 µM [falling, partial curve, poor fit]",
CNC(=S)N/N=C1\C(=O)c2cccc3cccc1c23,"11.2 µM [rising, partial curve, poor fit]","3.55 µM [falling, full curve]"
COc1ccc(NC(=O)c2sc3nc(N4CCCC4)c4c(c3c2N)CC(C)(C)OC4)cc1,"14.1 µM [rising, partial curve, poor fit]",
CCOC(=O)c1ccc(NC(=S)NC2CC(C)(C)NC(C)(C)C2)cc1,"12.6 µM [falling, partial curve]",
CC(=O)/C=C1/C(=O)Nc2ccccc21,,"35.5 µM [falling, single point]"
COc1ccc(C2=Nn3c(nnc3-c3ccco3)SC2)cc1OC,"1.12 µM [rising, full curve, poor fit]",
CN(C)/C=C1/NC(=S)NC1=O,"0.794 µM [falling, partial curve, poor fit]",
Cc1ccc(NC(=O)C2=CC(c3cccs3)=NS(=O)(=O)N2C)cc1,"0.355 µM [rising, full curve, poor fit]",
C=CCSc1nc(C)cc(C(=O)OCC)c1C#N,"11.2 µM [rising, partial curve]",
Cc1ccc(Nc2nc(-c3ccc(S(=O)(=O)N4CCOCC4)cc3)cs2)cc1Cl,"0.13 µM [rising, full curve, poor fit]",
COc1ccc(OCCC(=O)OCC(=O)NC(=O)NC2CCCCC2)cc1,"8.91 µM [falling, partial curve]",
O=[N+]([O-])c1cc(Cl)cc(/C=N/Nc2nc3ccccc3s2)c1O,"0.398 µM [falling, full curve]",

# From PubChem BioAssay AID493014 (National Center for Advancing Translational Sciences (NCATS), 2011)
